Some entries share one result that the patent states for a list of compounds.
Experiments:
K-RasG12V = K-RasG12V (Homo sapiens, UniProt P01116+P62937, G12V); experiment: Disruption of BRAF RBD interaction with K-Ras (TR-FRET / MOA assay), K-RasG12V; assay type: biochemical; conditions: TR-FRET with cyclophilin A and GST-BRAF RBD, read-out: IC50 with respect to K-RasG12V (disruption of BRAF RBD interaction)
Capan-1 (K-Ras G12V) = experiment: CellTiter-Glo cell viability assay, Capan-1; assay type: cell-based, human; conditions: 5-day treatment, Capan-1 versus A375

Sequences of proteins named here, by UniProt entry; tags and fusion partners are left off. A change or cut given only in a name is not applied to a line headed by its entry. Residues count along the entry.
UniProt P01116, 1-188 isoform P01116-2 G12V: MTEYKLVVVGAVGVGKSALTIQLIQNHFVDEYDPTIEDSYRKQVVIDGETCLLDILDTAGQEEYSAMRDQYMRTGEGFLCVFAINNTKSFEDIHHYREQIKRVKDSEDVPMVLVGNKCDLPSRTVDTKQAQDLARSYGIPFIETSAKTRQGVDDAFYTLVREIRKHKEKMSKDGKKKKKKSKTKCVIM
UniProt P62937, whole entry: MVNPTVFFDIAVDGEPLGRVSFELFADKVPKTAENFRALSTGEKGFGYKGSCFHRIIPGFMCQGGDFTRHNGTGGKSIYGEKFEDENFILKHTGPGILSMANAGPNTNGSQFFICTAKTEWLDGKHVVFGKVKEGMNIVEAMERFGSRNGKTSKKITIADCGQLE

SMILES	IC50 (K-RasG12V) [µM]	decrease in cell viability with respect to KRAS G12V (Capan-1) versus wild-type KRAS (A375) (Capan-1 (K-Ras G12V))
CO[C@@H](C)c1ncc(C2CCN(C3CC3)CC2)cc1-c1c2c3cc(ccc3n1CCO[C@H]1CCOC(C)(C)C1)-c1csc(n1)[C@@H](N1CC3(CCOC3)C1)[C@H](NC(=O)[C@@H]1OCC1(C)C)C(=O)N1CCC[C@H](N1)C(=O)OCC(C)(C)C2 (racemic) [Example A133]	< 1	greater decrease in cell viability
[2H]C([2H])([2H])[C@]1([2H])OC2(C(=O)N[C@@H]3C(=O)N4CCC[C@H](N4)C(=O)OCC(C)(C)Cc4c(-c5cc(N6CCN(C7CC7)CC6)cnc5[C@H](C)OC)n(CCOC5CCOCC5)c5ccc(cc45)-c4csc(n4)[C@H]3OCC)CC1(C)C2 (racemic) [Example A134]	< 1	greater decrease in cell viability
[2H][C@@]1(C)OC2(C(=O)N[C@@H]3C(=O)N4CCC[C@H](N4)C(=O)OCC(C)(C)Cc4c(-c5cc(N6CCN(C7CC7)CC6)cnc5[C@H](C)OC)n(CCOC5CCOCC5)c5ccc(cc45)-c4csc(n4)[C@H]3OCC)CC1(C)C2 (racemic) [Example A135]	< 1	greater decrease in cell viability
CO[C@@H](C)c1ncccc1-c1c2c3cc(ccc3n1CCOC1CCOCC1)-c1csc(n1)[C@@H](N1CC3(CCCCO3)C1)[C@H](NC(=O)[C@@H]1OC[C@@H]1C)C(=O)N1CCC[C@H](N1)C(=O)OCC(C)(C)C2 (racemic) [Example A137]	< 1	greater decrease in cell viability
CO[C@@H](C)c1ncc([C@H]2CCN(C3CC3)C2)cc1-c1c2c3cc(ccc3n1CCOC1CCOCC1)-c1csc(n1)[C@@H](N1CC(C)(C)C1)[C@H](NC(=O)[C@H]1[C@H](C)[C@@H]1C)C(=O)N1CCC[C@H](N1)C(=O)OCC(C)(C)C2 (racemic) [Example A138]	< 1	greater decrease in cell viability
CO[C@@H](C)c1ncc([C@@H]2CCN(C3CC3)C2)cc1-c1c2c3cc(ccc3n1CCOC1CCOCC1)-c1csc(n1)[C@@H](N1CC(C)(C)C1)[C@H](NC(=O)[C@H]1[C@H](C)[C@@H]1C)C(=O)N1CCC[C@H](N1)C(=O)OCC(C)(C)C2 (racemic) [Example A139]	< 1	greater decrease in cell viability
CO[C@@H](C)c1ncc(C2CN(C)C2)cc1-c1c2c3cc(ccc3n1CCOC1CCOCC1)-c1csc(n1)[C@@H](N1CC(C)(C)C1)[C@H](NC(=O)[C@H]1[C@H](C)[C@@H]1C)C(=O)N1CCC[C@H](N1)C(=O)OCC(C)(C)C2 (racemic) [Example A140]	< 1	greater decrease in cell viability
CO[C@@H](C)c1ncc(N2CCN(C3CC3)CC2)cc1-c1c2c3cc(ccc3n1CCOC1CCOCC1)-c1csc(n1)[C@@H](N1CC3(CCCOC3)C1)[C@H](NC(=O)C1OCC1(C)C)C(=O)N1CCC[C@H](N1)C(=O)OCC(C)(C)C2 (mixture of isomers) [Example A141]	< 1	greater decrease in cell viability
CO[C@@H](C)c1ncc(N2CCN(C3CC3)CC2)cc1-c1c2c3cc(ccc3n1CCOC1CCOCC1)-c1csc(n1)[C@@H](OCC(F)F)[C@H](NC(=O)N1C[C@@H]3[C@H](C)OCC[C@@H]31)C(=O)N1CCC[C@H](N1)C(=O)OCC(C)(C)C2 (racemic) [Example A142]	< 1	greater decrease in cell viability
CO[C@@H](C)c1ncccc1-c1c2c3cc(ccc3n1C1CN(C)C1)-c1csc(n1)[C@@H](N1CC3(COC3)C1)[C@H](NC(=O)[C@H]1OCC1(C)C)C(=O)N1CCC[C@H](N1)C(=O)OCC(C)(C)C2 (racemic) [Example A143]	< 1	greater decrease in cell viability
CO[C@@H](C)c1ncccc1-c1c2c3cc(ccc3n1C1CN(C)C1)-c1csc(n1)[C@@H](N1CC3(COC3)C1)[C@H](NC(=O)C13CC(C)(C1)[C@@H](C)O3)C(=O)N1N[C@H](C(=O)OCC(C)(C)C2)C2CC1C2 (racemic) [Example A144]	< 1	greater decrease in cell viability
CO[C@@H](C)c1ncccc1-c1c2c3cc(ccc3n1C1CN(C)C1)-c1csc(n1)[C@@H](N1CC3(COC3)C1)[C@H](NC(=O)C13CC(C)(C1)[C@H](C)O3)C(=O)N1N[C@H](C(=O)OCC(C)(C)C2)C2CC1C2 (racemic) [Example A145]	< 1	greater decrease in cell viability
CO[C@@H](C)c1ncccc1-c1c2c3cc(ccc3n1CCOC1CCOCC1)-c1coc(n1)[C@@H](N1CC3(COC3)C1)[C@H](NC(=O)[C@H]1C[C@@H]1C)C(=O)N1CCC[C@H](N1)C(=O)OCC(C)(C)C2 (racemic) [Example A146]	< 1	greater decrease in cell viability
